Like-named read-outs stand apart in the source and are kept apart here. Results are given in words; binding and its absence hold for the method and conditions named. Binding seen in cells or lysates may run through a third protein. Some binding calls cover weakened binding; strength is not graded here. For some assays here: Sequences can lack the tags named with a protein.
T1: FLAG-tagged FKBP51 (FK506-binding protein 51), expressed in SH-SY5Y cells (UniProt Q13451)
T1 sequence: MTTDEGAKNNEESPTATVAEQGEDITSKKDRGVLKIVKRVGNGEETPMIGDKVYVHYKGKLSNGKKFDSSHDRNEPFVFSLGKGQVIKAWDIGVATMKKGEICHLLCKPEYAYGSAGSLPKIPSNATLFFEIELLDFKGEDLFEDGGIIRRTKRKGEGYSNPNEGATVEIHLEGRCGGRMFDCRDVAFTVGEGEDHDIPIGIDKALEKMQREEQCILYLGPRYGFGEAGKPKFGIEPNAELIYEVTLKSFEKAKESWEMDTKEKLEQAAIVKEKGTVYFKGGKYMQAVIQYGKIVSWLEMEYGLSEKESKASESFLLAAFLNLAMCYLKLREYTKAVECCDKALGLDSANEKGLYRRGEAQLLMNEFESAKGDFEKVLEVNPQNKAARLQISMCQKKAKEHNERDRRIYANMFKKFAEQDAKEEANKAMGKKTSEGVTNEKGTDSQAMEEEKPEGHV

Amino acid sequences for entries named in this document (tags omitted).
UniProt O75396: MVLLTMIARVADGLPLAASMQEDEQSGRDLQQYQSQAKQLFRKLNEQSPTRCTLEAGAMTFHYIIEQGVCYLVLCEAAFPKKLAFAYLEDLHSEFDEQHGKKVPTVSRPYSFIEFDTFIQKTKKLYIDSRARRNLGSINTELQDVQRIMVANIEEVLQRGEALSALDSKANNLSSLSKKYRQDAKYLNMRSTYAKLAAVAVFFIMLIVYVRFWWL
UniProt O00214: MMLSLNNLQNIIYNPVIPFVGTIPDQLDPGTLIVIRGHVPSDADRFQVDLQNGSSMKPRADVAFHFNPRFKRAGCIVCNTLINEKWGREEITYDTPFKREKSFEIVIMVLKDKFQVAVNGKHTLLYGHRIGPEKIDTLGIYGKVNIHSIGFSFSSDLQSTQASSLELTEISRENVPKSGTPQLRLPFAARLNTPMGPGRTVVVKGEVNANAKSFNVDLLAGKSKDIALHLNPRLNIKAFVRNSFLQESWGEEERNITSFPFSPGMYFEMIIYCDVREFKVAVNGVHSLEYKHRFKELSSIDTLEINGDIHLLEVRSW
UniProt P61081: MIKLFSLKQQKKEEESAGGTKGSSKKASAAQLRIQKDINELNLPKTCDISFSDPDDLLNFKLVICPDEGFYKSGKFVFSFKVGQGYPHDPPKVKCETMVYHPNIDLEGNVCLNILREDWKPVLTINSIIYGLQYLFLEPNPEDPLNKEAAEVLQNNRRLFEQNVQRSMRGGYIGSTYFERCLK

B1: synaptosomal-associated protein SNAP23 in SH-SY5Y cells (protein, UniProt O00161 1-211)
chain: MDNLSSEEIQQRAHQITDESLESTRRILGLAIESQDAGIKTITMLDEQKEQLNRIEEGLDQINKDMRETEKTLTELNKCCGLCVCPCNRTKNFESGKAYKTTWGDGGENSPCNVVSKQPGPVTNGQLQQPTTGAASGGYIKRITNDAREDEMEENLTQVGSILGNLKDMALNIGNEIDAQNPQIKRITDKADTNRDRIDIANARAKKLIDS
B2: syntaxin 3 (STX3) in SH-SY5Y cells (protein, UniProt Q13277 1-289)
chain: MKDRLEQLKAKQLTQDDDTDAVEIAIDNTAFMDEFFSEIEETRLNIDKISEHVEEAKKLYSIILSAPIPEPKTKDDLEQLTTEIKKRANNVRNKLKSMEKHIEEDEVRSSADLRIRKSQHSVLSRKFVEVMTKYNEAQVDFRERSKGRIQRQLEITGKKTTDEELEEMLESGNPAIFTSGIIDSQISKQALSEIEGRHKDIVRLESSIKELHDMFMDIAMLVENQGEMLDNIELNVMHTVDHVEKARDETKKAVKYQSQARKKLIIIIVLVVVLLGILALIIGLSVGLN
B3: FKBP51 of SH-SY5Y cells, detected by blot in immunoprecipitates of its partners (protein, UniProt Q13451 1-457)
chain: T1 sequence

Tests used:
Assay in all cases: co-IP
[1] = biological target: T1, FLAG-tagged FKBP51 (FK506-binding protein 51), expressed in SH-SY5Y cells
[2] = biological target: GFP-tagged SEC22B, expressed in SH-SY5Y cells (UniProt O75396)
[3] = biological target: T1, FLAG-tagged FKBP51 (FK506-binding protein 51), expressed in SH-SY5Y cells; remark: listed apart in the source

Molecule | binding [1] | binding [2] | binding [3]
galectin-8 (GAL8) in SH-SY5Y cells (from UniProt O00214 1-317) | binds |  | 
SEC22B detected by blot in FLAG immunoprecipitates from SH-SY5Y cells (from UniProt O75396 1-215) | binds |  | 
UBC12 in SH-SY5Y cells (from UniProt P61081 1-183) | binds |  | 
B1 |  | binds weakly | binds
B2 |  | binds weakly | binds
B3 |  | binds | 

Reference: publication doi:10.1101/2020.05.13.090514
